The chains behind the UniProt entries cited, without tags or fusion partners. Where a name states a change or a piece, a line headed by the entry shows the natural chain unless it says otherwise. Residues count along the entry.
UniProt Q15910: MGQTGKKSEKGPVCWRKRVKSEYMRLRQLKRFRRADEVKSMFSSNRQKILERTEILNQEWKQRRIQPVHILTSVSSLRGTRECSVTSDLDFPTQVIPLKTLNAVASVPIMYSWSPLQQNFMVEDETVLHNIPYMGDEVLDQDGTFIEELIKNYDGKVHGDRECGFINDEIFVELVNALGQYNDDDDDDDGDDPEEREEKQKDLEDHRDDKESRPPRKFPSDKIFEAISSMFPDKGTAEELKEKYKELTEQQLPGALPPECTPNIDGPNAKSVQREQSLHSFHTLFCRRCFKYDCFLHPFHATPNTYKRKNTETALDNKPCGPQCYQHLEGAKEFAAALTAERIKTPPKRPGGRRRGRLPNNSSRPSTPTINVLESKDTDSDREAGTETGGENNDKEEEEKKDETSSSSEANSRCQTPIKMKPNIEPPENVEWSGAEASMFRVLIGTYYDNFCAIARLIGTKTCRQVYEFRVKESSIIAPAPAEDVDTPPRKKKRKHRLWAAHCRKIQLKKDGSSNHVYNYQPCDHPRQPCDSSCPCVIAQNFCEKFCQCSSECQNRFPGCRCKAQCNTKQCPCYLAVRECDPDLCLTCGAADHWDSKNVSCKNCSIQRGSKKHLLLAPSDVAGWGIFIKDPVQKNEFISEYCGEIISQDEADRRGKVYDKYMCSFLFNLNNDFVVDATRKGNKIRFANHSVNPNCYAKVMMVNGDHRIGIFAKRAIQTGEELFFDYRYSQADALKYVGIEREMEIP
UniProt P62258: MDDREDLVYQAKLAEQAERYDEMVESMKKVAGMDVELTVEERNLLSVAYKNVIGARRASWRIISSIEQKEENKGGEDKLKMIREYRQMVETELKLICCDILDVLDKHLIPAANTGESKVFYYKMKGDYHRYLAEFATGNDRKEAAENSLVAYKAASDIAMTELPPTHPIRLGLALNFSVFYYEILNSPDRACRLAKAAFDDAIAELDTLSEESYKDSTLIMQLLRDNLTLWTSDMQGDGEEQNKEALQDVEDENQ
UniProt P07339: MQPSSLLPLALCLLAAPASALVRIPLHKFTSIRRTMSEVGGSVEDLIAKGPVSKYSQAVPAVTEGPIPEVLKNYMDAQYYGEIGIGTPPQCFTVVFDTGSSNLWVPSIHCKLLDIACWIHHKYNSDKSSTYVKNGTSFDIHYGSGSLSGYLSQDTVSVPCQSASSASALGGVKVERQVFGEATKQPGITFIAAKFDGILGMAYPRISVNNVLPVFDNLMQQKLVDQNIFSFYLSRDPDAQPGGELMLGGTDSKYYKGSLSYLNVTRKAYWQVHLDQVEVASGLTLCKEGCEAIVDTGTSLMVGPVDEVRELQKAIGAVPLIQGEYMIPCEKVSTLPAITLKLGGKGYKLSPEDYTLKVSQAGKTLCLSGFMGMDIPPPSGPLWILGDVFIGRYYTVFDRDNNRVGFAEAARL
UniProt Q13510, residues 22-395: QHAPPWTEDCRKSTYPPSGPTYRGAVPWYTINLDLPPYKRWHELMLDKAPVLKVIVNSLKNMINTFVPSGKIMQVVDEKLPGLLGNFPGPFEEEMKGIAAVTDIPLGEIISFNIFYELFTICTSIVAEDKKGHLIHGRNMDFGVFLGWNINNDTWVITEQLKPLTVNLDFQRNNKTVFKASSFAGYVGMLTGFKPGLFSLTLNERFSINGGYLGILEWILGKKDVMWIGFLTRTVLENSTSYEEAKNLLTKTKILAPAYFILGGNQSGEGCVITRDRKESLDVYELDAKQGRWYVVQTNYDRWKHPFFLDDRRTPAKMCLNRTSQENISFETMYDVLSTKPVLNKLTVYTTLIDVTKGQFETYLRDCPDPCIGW
UniProt P28074: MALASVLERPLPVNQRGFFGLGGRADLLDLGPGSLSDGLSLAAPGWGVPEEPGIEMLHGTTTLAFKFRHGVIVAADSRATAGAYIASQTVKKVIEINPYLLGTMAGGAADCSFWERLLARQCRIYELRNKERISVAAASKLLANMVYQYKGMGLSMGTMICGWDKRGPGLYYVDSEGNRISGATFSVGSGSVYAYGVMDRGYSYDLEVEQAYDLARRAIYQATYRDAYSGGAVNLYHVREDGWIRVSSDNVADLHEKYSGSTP

In publication PMC12034783:

How the values were obtained:
[1] = molecular target: Enhancer of Zeste Homolog-2 (EZH2) (human (endogenous in EA.hy926 and HUVEC)) (UniProt Q15910); assay: condition: only cells exposed to GSNO (100 uM) for 30 min; affinity purification with mass spectrometry; as a5, HUVEC treated with GSNO (100 uM) for 30 min before lysis; abundances of PRC2 proteins normalised to that of EZH2 and compared with untreated cells
[2] = molecular target: Enhancer of Zeste Homolog-2 (EZH2) (human (endogenous in EA.hy926 and HUVEC)) (UniProt Q15910); assay: affinity purification with mass spectrometry; EZH2 mAb on protein A magnetic beads, overnight with 1000 ug of HUVEC lysate in RIPA buffer, tryptic digest, LC-MS/MS (Orbitrap Exploris); untreated control cells (for partners said to be unchanged also the GSNO sample); two biological replicates
[3] = molecular target: Enhancer of Zeste Homolog-2 (EZH2) (human (endogenous in EA.hy926 and HUVEC)) (UniProt Q15910); assay: affinity purification with mass spectrometry; as a5, HUVEC treated with GSNO (100 uM) for 30 min before lysis; abundances of PRC2 proteins normalised to that of EZH2 and compared with untreated cells

Row | Substance | binding [1] | binding [2] | binding [3]
1 | 14-3-3 epsilon (from UniProt P62258 1-255) | no binding | binds | 
2 | cathepsin D lysosomal protease (from UniProt P07339) (enzyme) |  | no binding (only control cells without GSNO) | binds
3 | lysosomal acid ceramidase (from UniProt Q13510 22-395) (enzyme) |  | no binding (only control cells without GSNO) | binds
4 | proteasome subunit beta type-5 (from UniProt P28074) |  | no binding (only control cells without GSNO) | binds

No constants are given. Whether binding was seen depends on the method and setting. In cells and extracts the contact can be indirect. Here binding means that the protein was enriched with, or labelled near, the bait; the list need not be complete. For some assays here: No binding means not detected with the bait.
